Among all 350,000 compounds or so, about 6,000 (1.7%) were called active. The inconclusive results got no clear call from the source; some entries with a clear call stand among them for comparison. Rule as the data show it: active = CPE inhibition above about 20% (passing the limit was not always enough); inconclusive = no clear call, values can overlap the other calls; tested in BHK-21 cells.
Assay: protection of cells from dengue 2 killing – plate reader, single concentration, primary screen (AID 651640);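 also: 0% = median of neutral control wells and 100% = median of positive control wells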
Conditions: DENV2-infected cells, cytopathic effect rescue, at 9.99 µM, active compounds read high
With c1cncc(-c2ccc(C3[C@@H]4CN(Cc5ccc6c(c5)OCO6)C[C@H]3N4)cc2)c1 (some centres not stated) the CPE inhibition was inconclusive: 33.7%.
In the case of Cc1cccc(NC(=O)/C(C#N)=C/c2ccccc2O)n1, the CPE inhibition is reported as inconclusive: 37.6%.
For COc1ccc(-c2csc(C(O)c3ccc(F)c(OC)c3)n2)cn1 (configuration not stated), the CPE inhibition was inconclusive: 45.6%.
For Cc1cc(F)ccc1C(O)c1ncc(-c2ccccc2F)[nH]1 (configuration not stated), the CPE inhibition was inactive: 3.53%.
With Nc1ccccc1C(=O)NN=Cc1cccc([N+](=O)[O-])c1 the CPE inhibition was inconclusive: 52.2%.
For CC[C@@H](C)C(C(=O)N1CCN(C(=O)OC(C)(C)C)CC1)n1cc(-c2cn([C@@H](C)C(=O)N3CCN(C(=O)OC(C)(C)C)CC3)nn2)nn1 (some centres not stated), the CPE inhibition was inconclusive: 38.8%.
For CC(=O)NS(=O)(=O)c1ccc(NC(=O)COc2cccc3c2OC(C)(C)C3)cc1, the CPE inhibition was inconclusive: 30%.
In the case of C[C@@H]1CN([C@@H](C)CO)C(=O)Cc2cc(NC(=O)Nc3ccccc3)ccc2O[C@@H]1CN(C)C(=O)NC1CCCCC1, the CPE inhibition is reported as inconclusive: 76.8%.
In the case of O=C(Nc1ccc(F)c(Cl)c1)c1cc(C2CCCN(S(=O)(=O)c3cccs3)C2)on1 (configuration not stated), the CPE inhibition is reported as inconclusive: 49.4%.
For O=C(N[C@@H]1CC[C@H](CCNC(=O)C2CCCC2)O[C@@H]1CO)c1ccccn1, the CPE inhibition was inactive: -9.4%.
For N#C[C@H]1[C@@H](c2ccccc2C2=CCCCC2)[C@H](CO)N1S(=O)(=O)c1ccccc1, the CPE inhibition was inactive: -7.71%.
In the case of CN1C(=O)c2cc(NC(=O)c3ccccc3)ccc2OC[C@H]2O[C@H](CC(=O)O)CC[C@H]21, the CPE inhibition is reported as inconclusive: 60.8%.
With COc1c(Cl)cc(Br)c(OC)c1C(=O)NC(=O)Nc1nc(C)cc(C)n1 the CPE inhibition was active: 32%.
With COc1ccc(S(=O)(=O)N(C)C[C@@H]2OCCCC[C@@H](C)Oc3ccc(NS(=O)(=O)c4cccs4)cc3C(=O)N([C@@H](C)CO)C[C@@H]2C)cc1 the CPE inhibition was inactive: -13.4%.
For Cc1nc2scc(C)n2c(=O)c1S(=O)(=O)Nc1ccc(N2CCN(C(=O)C(C)C)CC2)cc1, the CPE inhibition was active: 51.1%.
In the case of CN(Cc1ccc(C(C)(C)C)cc1)C(=O)c1ccc2c(=O)n3c(nc2c1)CCC3, the CPE inhibition is reported as inconclusive: 31.6%.
With CCc1cc(=O)oc2c3c(cc(OCC(=O)NCCCn4ccnc4)c12)OC(C)(C)CC3 the CPE inhibition was inconclusive: 29%.
For CCN(C[C@@H]1N[C@@H](CO)[C@H]1c1ccc(-c2ccccc2)cc1)C(=O)COC, the CPE inhibition was active: 23.6%.
In the case of O=C(O)CCC(=O)Nc1sc2c(c1C(=O)NCc1ccccc1)CCCC2, the CPE inhibition is reported as inactive: -0.0825%.
For O=C(NC1CCCCCC1)c1[nH]c(C(F)(F)F)nc1-c1ccccc1, the CPE inhibition was inconclusive: 52.7%.
With C[C@@H]1CN([C@H](C)CO)S(=O)(=O)c2ccc(C3=CCCC3)cc2O[C@H]1CN(C)C(=O)c1ccncc1 the CPE inhibition was active: 44.8%.
For CC(C)S(=O)(=O)N1CCCC(c2cc(C(=O)Nc3ccc(F)c(Cl)c3)no2)C1 (configuration not stated), the CPE inhibition was inconclusive: 74.6%.
In the case of COc1ccccc1-c1ccc2c(c1)O[C@@H](CN(C)C(=O)c1ccncc1)[C@H](C)CN([C@H](C)CO)S2(=O)=O, the CPE inhibition is reported as inconclusive: 32%.
With COC(=O)C[C@@H]1CC[C@H]2[C@H](COc3ccc(NC(=O)Nc4ccccc4C)cc3C(=O)N2C)O1 the CPE inhibition was inconclusive: 62.7%.
With C[C@H]1CN([C@@H](C)CO)C(=O)c2cccc(NC(=O)C3CC3)c2O[C@@H]1CN(C)C(=O)Nc1cccc2ccccc12 the CPE inhibition was inactive: -3.29%.
For COc1ccc(NC(=S)Nn2cnnc2)cc1OC, the CPE inhibition was inconclusive: 24.5%.
With O=C(COc1ccc(F)cc1Cl)N1CCN(C(=O)c2cccs2)CC1 the CPE inhibition was inconclusive: 35%.
With CCO[C@H]1OC(C(=O)N2CCN(Cc3ccc4c(c3)OCO4)CC2)=C[C@@H](C2CCCCC2)[C@@H]1CCCO the CPE inhibition was inconclusive: 23.1%.
In the case of C[C@@H]1CN([C@@H](C)CO)C(=O)c2cc(C#Cc3ccccc3F)cnc2O[C@@H]1CN(C)S(=O)(=O)c1ccccc1, the CPE inhibition is reported as inconclusive: 6.35%.
For C[C@H](O)C#Cc1ccc2c(c1)O[C@@H](CN(C)Cc1cncnc1)[C@@H](C)CN([C@H](C)CO)S2(=O)=O, the CPE inhibition was inconclusive: 5.82%.
With Cc1ccc(S(=O)(=O)NNc2ccccc2)c(C)c1 the CPE inhibition was inconclusive: 21.7%.
In the case of O=S(=O)(NCc1cccnc1)c1ccc(Br)c2ccccc12, the CPE inhibition is reported as inconclusive: 20.4%.
With COc1ccc(NC(=O)N(C)C[C@H]2Oc3ccc(NC(=O)CCC(F)(F)F)cc3CC(=O)N([C@@H](C)CO)C[C@H]2C)cc1 the CPE inhibition was inactive: 2.35%.
With Cc1cnc(NC(=O)c2cccc(S(=O)(=O)N3CCOCC3)c2)s1 the CPE inhibition was inconclusive: 69.5%.
With COc1cccc(CN2CC(C(=O)N(C)Cc3[nH]c4ccccc4c3C)CCC2=O)c1 (configuration not stated) the CPE inhibition was inconclusive: 32.8%.
With COc1ccc(NC(=O)N(C)C[C@H]2OCCCC[C@@H](C)Oc3ccc(NC(=O)NC4CCCCC4)cc3C(=O)N([C@@H](C)CO)C[C@H]2C)cc1 the CPE inhibition was inconclusive: 22.1%.
With COc1ccc(Cl)cc1NC(=O)CN(C)C(=O)CCc1nc2ccccc2c(=O)[nH]1 the CPE inhibition was inconclusive: 55.6%.
With N#Cc1cccc(-c2ccc([C@@H]3[C@H](CO)N4CCCCN(C(=O)Nc5ccc(F)cc5)C[C@@H]34)cc2)c1 the CPE inhibition was active: 25.5%.
In the case of CCCCNc1c([N+](=O)[O-])ncn1C, the CPE inhibition is reported as inactive: -0.136%.
For Cc1cccc(Nc2nnc(SCC(=O)NCC3CCCO3)s2)c1 (configuration not stated), the CPE inhibition was inconclusive: 37.7%.
With O=C(NC1CCCCCCC1)c1cccc(S(=O)(=O)N2CCOCC2)c1 the CPE inhibition was inconclusive: 20%.
With COC(=O)CC1C(=O)NCCN1C(=S)Nc1ccccc1 (configuration not stated) the CPE inhibition was inconclusive: 61.7%.
With CCC(=O)N(C)C[C@@H]1Oc2cc(C#CCN(C)C)ccc2S(=O)(=O)N([C@@H](C)CO)C[C@@H]1C the CPE inhibition was inconclusive: 21.5%.
With C(=C\c1ccccc1)/CN1CCN(C(c2cccs2)c2nnnn2Cc2ccccc2)CC1 (configuration not stated) the CPE inhibition was inconclusive: 34.1%.
In the case of COc1ccc(-c2noc(CCC(=O)NC3CCCCCC3)n2)cc1OC, the CPE inhibition is reported as inconclusive: 51.6%.
For COc1cccc(/C=N/NC(=O)N/N=C/c2cccc(OC)c2O)c1O, the CPE inhibition was inconclusive: 20.7%.
With C[C@H]1CN([C@@H](C)CO)C(=O)c2cc(C#CC3CC3)cnc2O[C@H]1CN(C)S(=O)(=O)c1cccc(F)c1 the CPE inhibition was inconclusive: 29.7%.

Reference: PubChem BioAssay AID651640 (Broad Institute, 2012)
